The target of this assay is YAP (mouse (endogenous in E14Tg2a ESC and in iPSC from MEFs)) (UniProt P46938). The assay can be described thus: affinity purification with mass spectrometry; YAP immunoprecipitates (Protein G Dynabeads) from whole cell lysates of ESC transfected with empty vector or zsRASSF1A; Orbitrap; intensities normalised to YAP.

Amino acid sequences for entries named in this document (tags omitted).
UniProt P46938: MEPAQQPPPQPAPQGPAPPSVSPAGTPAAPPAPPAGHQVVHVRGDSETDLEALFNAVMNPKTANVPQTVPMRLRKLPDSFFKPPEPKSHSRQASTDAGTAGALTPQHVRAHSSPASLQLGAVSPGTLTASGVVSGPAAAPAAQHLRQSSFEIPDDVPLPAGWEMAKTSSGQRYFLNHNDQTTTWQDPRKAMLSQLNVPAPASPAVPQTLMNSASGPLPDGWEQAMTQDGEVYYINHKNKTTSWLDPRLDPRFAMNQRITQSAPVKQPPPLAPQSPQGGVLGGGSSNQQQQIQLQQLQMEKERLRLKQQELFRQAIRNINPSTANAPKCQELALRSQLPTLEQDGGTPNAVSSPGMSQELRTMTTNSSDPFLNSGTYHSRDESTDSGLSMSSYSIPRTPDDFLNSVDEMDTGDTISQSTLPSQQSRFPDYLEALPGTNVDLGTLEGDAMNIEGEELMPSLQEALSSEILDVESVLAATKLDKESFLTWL

These are yes or no findings as the source states them, for the method shown. In cells and extracts the contact can be indirect. Here binding means that the protein was enriched with, or labelled near, the bait; the list need not be complete.

B1: TCF3 (protein, UniProt Q9Z1J1 1-584)
chain: MPQLGGGRGGAGGGGGGSGAGATSGGDDLGANDELIPFQDEGGEEQEPSSDTASAQRDLDEVKSSLVNESENQSSSSDSEAERRPQPARDAFQKPRDYFAEVRRPQDGAFFKGGAYPGYPFLMIPDLSSPYLSNGPLSPGGARTYLQMKWPLLDVPSSATVKDTRSPSPAHLSNKVPVVQHPHHMHPLTPLITYSNDHFSPASPPTHLSPEIDPKTGIPRPPHPSELSPYYPLSPGAVGQIPHPLGWLVPQQGQPMYSLPPGGFRHPYPALAMNASMSSLVSSRFPHMVAPAHPGLPTSGIPHPAIVSPIVKQEPAAPSLSPAVSAKSPVTVKKEEEKKPHVKKPLNAFMLYMKEMRAKVVAECTLKESAAINQILGRKWHNLSREEQAKYYELARKERQLHAQLYPTWSARDNYGKKKKRKREKQLSQTQSQQQIQEAEGALASKSKKPCIQYLPPEKPCDSPASSHGSALDSPATPSAALASPAAPAATHSEQAQPLSLTTKPEARAQLALHSAAFLSAKAAASNSSQMGSQPPLLSRPLPLGSMPAALLTSPPTFPATLHAHQALPVLQAQPLSLVTKSAH
For B1, the binding entry is listed as “binds”.

The values above are taken from publication PMC5789973.
